Among the data in patent publication US12465646B2 (Oxford University Innovation Limited, priority 2018, dated 2025) are conjugation yield and isolated yield values, retold here.

The nature of one data set: general procedure: Fmoc solid-phase peptide synthesis; Rink amide resin (0.46 mmol/g); Fmoc-β-Ala-OH preloaded Wang resin (0.19 or 0.46 mmol/g); Tentagel Cl-trityl resin (0.41); PyBOP/DIPEA. The settings on record: conjugation step, based on P-PMO (UV-Vis, PMO extinction coefficient).
Ac-RBRRBRFQILYRBHBH-(E)-PMO registered a conjugation yield of 49%.
In the case of Ac-RBRRBRRFQILYRBHBH-(Ab)-PMO, the conjugation yield came to 26%.
In turn, Ac-RBRRBRRFQILYRBHBH-(E)-PMO returned a conjugation yield of 27%.
Take PMO-(E)-RBRRBRRFQILYRBHBH-NH2: the conjugation yield turned out to be 48%.
With PMO-(Succ)-RBRRBRRFQILYRBHBH-NH2, the conjugation yield is on record as 64%.

Another data set can be described thus: general procedure: Fmoc solid-phase peptide synthesis; CI-Trityl tentagel resin; PyBOP/DIPEA. The settings on record: whole synthesis, scale of the general procedure 100 μmol.
Regarding Ac-RBRRBRRFQILYRBHBH-Ab, the isolated yield turned out to be 37%.

Another data set can be described thus: general procedure: Fmoc solid-phase peptide synthesis; Pre-loaded Wang resin; PyBOP/DIPEA. The note with it: whole synthesis, scale of the general procedure 100 μmol.
Turning to Ac-RBRRBRRFQILYRBHBH-B, the isolated yield turned out to be 34%.

Another data set can be described thus: general procedure: Fmoc solid-phase peptide synthesis; Rink amide resin; PyBOP/DIPEA. The settings on record: whole synthesis, scale of the general procedure 100 μmol.
Ac- RBRRBRFQILYRBHBH-E: the isolated yield was found to be 34%.
As to Ac-RBRRBRFQILYBRBR-E, the isolated yield worked out at 40%.
On the same count and under the same terms, the figure for Ac-RBRRBRRFQILYRBHBH-E is 34%; for E-RBRRBRRFQILYRBHBH-NH2 it is 34%; for Succ-RBRRBRRFQILYRBHBH-NH2 it is 26%.
